# Laboratory results reported in the supplement of paper PMC12889115.
# The list shows a part of the results. Values are raw readings; no control value is given beside them.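 In the initial screen, polymyxin B was used at a concentration that permeabilizes Salmonella's outer membrane but not its inner membrane. Maximum growth was set by DMSO wells with or without polymyxin B. Since plates varied, data were ranked per plate, and compounds giving the lowest OD600 advanced as hits.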
# Test system: Salmonella enterica serovar Typhimurium SL1344
# Experiment: bacterial growth OD600 after 18 h with compound and polymyxin B; higher = more bacterial growth (less inhibition)
# Conditions: 50 µM, Mueller-Hinton broth
smiles,measurement,setting,value
O=C(c1csnn1)N1CCC(C2CCN(Cc3cccc(F)c3F)CC2)C1 (stereo unspecified),bacterial growth OD600,polymyxin B 0.75 µg/mL,0.814
COc1ccc(CCCN2C(=O)O[C@@H]3CN(Cc4cccc(C)n4)C[C@@H]32)cc1,bacterial growth OD600,polymyxin B 1 µg/mL,0.992
CCN1CCN(C2(C(=O)NCc3ccccc3C)Cc3ccccc3C2)CC1,bacterial growth OD600,polymyxin B 0.75 µg/mL,0.794
COC(=O)c1c(OCCCc2ccccc2)cc(=O)n2c1CCN(C(=O)c1ccccc1F)CC2,bacterial growth OD600,polymyxin B 0.75 µg/mL,0.775
CC(=O)CCC(=O)N1CCCC(CNC(=O)c2ccc(-c3ccccc3)cc2)C1 (stereo unspecified),bacterial growth OD600,polymyxin B 1 µg/mL,1.01
Cn1ccnc1CN1CCCC(CCc2cccc(F)c2)C1 (stereo unspecified),bacterial growth OD600,polymyxin B 0.75 µg/mL,0.854
O=C(CC(c1ccccc1)c1ccc(Cl)cc1)NCCc1cnccn1 (stereo unspecified),bacterial growth OD600,polymyxin B 1 µg/mL,0.913
O=C(c1ccccc1OC1CCN(Cc2ccco2)CC1)N1CCCC1,bacterial growth OD600,polymyxin B 0.75 µg/mL,0.729
Cc1cc(Cl)ccc1C(=O)C1CCCN(Cc2cccn2-c2nccs2)C1 (stereo unspecified),bacterial growth OD600,polymyxin B 1 µg/mL,0.777
CCCC1(C2CCN(C(=O)c3sc(C)nc3C)CC2)NC(=O)N(CCc2ccccn2)C1=O (stereo unspecified),bacterial growth OD600,polymyxin B 0.75 µg/mL,0.725
O=C(NCc1ccccc1)c1coc(CN2CCN(c3ncccn3)CC2)n1,bacterial growth OD600,polymyxin B 1 µg/mL,0.933
Cc1cc(C)n(Cc2cc(C(=O)NCCCN3CCCC3=O)n[nH]2)n1,bacterial growth OD600,polymyxin B 1 µg/mL,1.19
CC1(C)Cc2nc(N3CCOCC3)ncc2C(NC(=O)c2cccs2)C1 (stereo unspecified),bacterial growth OD600,polymyxin B 0.75 µg/mL,0.805
C[C@@H]1C[C@@H](C(=O)NCC2(N(C)Cc3ccccc3)Cc3ccccc3C2)NC(=S)N1,bacterial growth OD600,polymyxin B 1 µg/mL,0.854
CN1CCCCC1C(=O)NCc1cccnc1Oc1cccc(C(F)(F)F)c1 (stereo unspecified),bacterial growth OD600,polymyxin B 1 µg/mL,0.946
CCOC(=O)C1(CC2CCCCO2)CCN(C(=O)Nc2ccccc2)CC1 (stereo unspecified),bacterial growth OD600,polymyxin B 0.75 µg/mL,0.734
O=C(c1cc[nH]n1)N1CCC(C2CCN(CCc3ccccc3)CC2)C1 (stereo unspecified),bacterial growth OD600,polymyxin B 1 µg/mL,1.03
CC(C)(C)C(=O)Nc1ccnn1C1CCN(C(=O)c2cc(F)ccc2F)CC1,bacterial growth OD600,polymyxin B 1 µg/mL,0.869
O=C(Nc1cnn(CC(=O)N2CCC(Oc3ccccc3F)CC2)c1)c1ccc2c(c1)OCO2,bacterial growth OD600,polymyxin B 0.75 µg/mL,0.762
COc1ccc2nc(N3CCC(NCC(C)C)CC3)nc(C)c2c1,bacterial growth OD600,polymyxin B 0.75 µg/mL,0.829
CC(C)c1ccc(NC2CCCN(C(=O)CN3C(=O)c4ccccc4C3=O)C2)cc1 (stereo unspecified),bacterial growth OD600,polymyxin B 1 µg/mL,0.286

# A draw from above in order of formula weight, low to high.
smiles,measurement,setting,value
COc1ccc2nc(N3CCC(NCC(C)C)CC3)nc(C)c2c1,bacterial growth OD600,polymyxin B 0.75 µg/mL,0.829
CC(C)(C)C(=O)Nc1ccnn1C1CCN(C(=O)c2cc(F)ccc2F)CC1,bacterial growth OD600,polymyxin B 1 µg/mL,0.869
CN1CCCCC1C(=O)NCc1cccnc1Oc1cccc(C(F)(F)F)c1 (stereo unspecified),bacterial growth OD600,polymyxin B 1 µg/mL,0.946
